Test results: the supplement of paper PMC6078165
Values are relative to the signal before dosing, not to a vehicle control; the signal also falls without drug.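 Fibroblast labels name human fibroblasts: mostly primary ones from tissues such as uterus (C12385, HUF), lung (H6013), bone (Hs27A), adrenal (HADF) and skin (WS1), plus mammary HMF and breast cancer-associated Hs343T. The cancer cells are basal-like or mesenchymal-like triple-negative breast cancer lines. The paper calls a changed response a hit when it shifts by more than 3x the replicate standard deviation. The tissue of the other fibroblasts is not given here.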

System: HCC1143
Test: relative JC-1 red fluorescence (viability) vs pre-drug, coculture with fibroblast (fraction); higher = more viable cancer cells
Method: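 JC-1 labelled TNBC cells cocultured 1:1 (1,500 cells each) with CellTrace Violet stained primary or stromal fibroblasts in 384-well plates in FluoroBrite medium, treated with one of 42 anticancer drugs at 0.1, 1, 10 or 100 uM. JC-1 red fluorescence (mitochondrial integrity in cancer cells only) was read by plate reader every 8 h for 72 h. Values are normalised to each well's pre-drug value. The stock of one drug was tenfold lower, so its dose labels may be too high.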

CCC1=C[C@@H]2CN(C1)Cc1c([nH]c3ccccc13)[C@@](C(=O)OC)(c1cc3c(cc1OC)N(C)[C@H]1[C@@](O)(C(=O)OC)[C@H](OC(C)=O)[C@]4(CC)C=CCN5CC[C@]31[C@@H]54)C2 [Vinorelbine]
relative JC-1 red fluorescence
Conditions | 8 h | 16 h | 24 h | 32 h | 40 h | 48 h | 56 h | 64 h | 72 h
0.1 µM, coculture fibroblast: C12385 | 0.886 | 0.7967 | 0.7514 | 0.704 | 0.636 | 0.595 | 0.567 | 0.552 | 0.548
0.1 µM, coculture fibroblast: H6013 | 0.8035 | 0.7036 | 0.672 | 0.664 | 0.609 | 0.615 | 0.607 | 0.599 | 0.5884
0.1 µM, coculture fibroblast: H6019 | 0.829 | 0.774 | 0.7482 | 0.7049 | 0.6761 | 0.673 | 0.639 | 0.6265 | 0.6064
0.1 µM, coculture fibroblast: H6076 | 0.811 | 0.794 | 0.74 | 0.693 | 0.658 | 0.635 | 0.609 | 0.592 | 0.611
0.1 µM, coculture fibroblast: H6231 | 0.842 | 0.883 | 0.769 | 0.636 | 0.666 | 0.633 | 0.59 | 0.555 | 0.53
0.1 µM, coculture fibroblast: HADF | 0.793 | 0.715 | 0.675 | 0.659 | 0.555 | 0.53 | 0.505 | 0.493 | 0.479
0.1 µM, coculture fibroblast: HCFa | 0.786 | 0.675 | 0.6278 | 0.6168 | 0.5332 | 0.5121 | 0.4756 | 0.445 | 0.428
0.1 µM, coculture fibroblast: HCPF | 0.832 | 0.858 | 0.793 | 0.665 | 0.712 | 0.676 | 0.642 | 0.611 | 0.593
0.1 µM, coculture fibroblast: HHSteC | 0.8372 | 0.725 | 0.687 | 0.663 | 0.591 | 0.564 | 0.53 | 0.512 | 0.481
0.1 µM, coculture fibroblast: HMF | 0.835 | 0.82 | 0.75 | 0.688 | 0.665 | 0.628 | 0.591 | 0.569 | 0.554
0.1 µM, coculture fibroblast: HPFa | 0.8946 | 0.798 | 0.7329 | 0.62 | 0.5694 | 0.54 | 0.492 | 0.467 | 0.448
0.1 µM, coculture fibroblast: HUF | 0.89137 | 0.801 | 0.756 | 0.681 | 0.624 | 0.596 | 0.548 | 0.524 | 0.499
0.1 µM, coculture fibroblast: Hs5 | 0.8713 | 0.846 | 0.788 | 0.753 | 0.691 | 0.664 | 0.639 | 0.612 | 0.609
0.1 µM, coculture fibroblast: Hs27A | 0.786 | 0.717 | 0.653 | 0.665 | 0.571 | 0.569 | 0.543 | 0.529 | 0.483
0.1 µM, coculture fibroblast: Hs343T | 0.8378 | 0.7712 | 0.7076 | 0.66 | 0.615 | 0.579 | 0.547 | 0.531 | 0.519
0.1 µM, coculture fibroblast: WS1 | 0.831 | 0.735 | 0.673 | 0.595 | 0.536 | 0.5 | 0.473 | 0.455 | 0.454
1 µM, coculture fibroblast: C12385 | 0.8616 | 0.772 | 0.729 | 0.684 | 0.63 | 0.592 | 0.571 | 0.543 | 0.531
1 µM, coculture fibroblast: H6013 | 0.788 | 0.72 | 0.692 | 0.685 | 0.646 | 0.635 | 0.627 | 0.626 | 0.607
1 µM, coculture fibroblast: H6019 | 0.849 | 0.801 | 0.782 | 0.735 | 0.7 | 0.6928 | 0.663 | 0.642 | 0.619
1 µM, coculture fibroblast: H6076 | 0.79717 | 0.78 | 0.7661 | 0.748 | 0.6937 | 0.684 | 0.669 | 0.649 | 0.658
1 µM, coculture fibroblast: H6231 | 0.8452 | 0.851 | 0.7704 | 0.652 | 0.66969 | 0.631 | 0.589 | 0.551 | 0.531
1 µM, coculture fibroblast: HADF | 0.802 | 0.723 | 0.699 | 0.693 | 0.617 | 0.5899 | 0.566 | 0.539 | 0.51801
1 µM, coculture fibroblast: HCFa | 0.8002 | 0.699 | 0.662 | 0.674 | 0.605 | 0.579 | 0.554 | 0.527 | 0.519
1 µM, coculture fibroblast: HCPF | 0.837 | 0.806 | 0.752 | 0.665 | 0.666 | 0.628 | 0.599 | 0.566 | 0.556
1 µM, coculture fibroblast: HHSteC | 0.8827 | 0.829 | 0.805 | 0.776 | 0.717 | 0.682 | 0.643 | 0.621 | 0.566
1 µM, coculture fibroblast: HMF | 0.8213 | 0.8542 | 0.809 | 0.738 | 0.735 | 0.701 | 0.664 | 0.637 | 0.628
1 µM, coculture fibroblast: HPFa | 0.919 | 0.827 | 0.793 | 0.701 | 0.637 | 0.609 | 0.568 | 0.541 | 0.514
1 µM, coculture fibroblast: HUF | 0.916 | 0.845 | 0.816 | 0.74 | 0.698 | 0.6806 | 0.631 | 0.6048 | 0.579
1 µM, coculture fibroblast: Hs5 | 0.8483 | 0.8349 | 0.798 | 0.778 | 0.72 | 0.701 | 0.684 | 0.676 | 0.677
1 µM, coculture fibroblast: Hs27A | 0.8023 | 0.734 | 0.711 | 0.727 | 0.64 | 0.65 | 0.626 | 0.615 | 0.565
1 µM, coculture fibroblast: Hs343T | 0.852 | 0.894 | 0.859 | 0.817 | 0.778 | 0.76 | 0.72 | 0.71 | 0.699
1 µM, coculture fibroblast: WS1 | 0.866 | 0.792 | 0.773 | 0.709 | 0.666 | 0.648 | 0.623 | 0.603 | 0.591
